Assay results reported in patent US20120183536A1, “METHODS OF USING CORTICOTROPIN-RELEASING FACTOR FOR THE TREATMENT OF CANCER” (priority 2009, published 2012).
For at least one compound, name, drawing or mass did not settle the structure.

Tested on: U87 Fluc brain tumor
Conditions: mouse, in vivo
Description: The results were obtained with SCID mice bearing brain tumors produced by injection with the human glioblastoma cell line U87 Flue. The U87 Flue cell line was created by stably transducing U87 cells with a lentiviral construct containing the luc gene.

Structure (SMILES): Cn1nnc2c(C(N)=O)ncn2c1=O [TMZ, temozolomide, reference compound]
- mean survival time (comparison): longer mean survival time than BiCNU-treated mice
